Some of the results follow.
Compound: c1cn2cc(-c3ccc4cn[nH]c4c3)nc(Nc3ccc(N4CCOCC4)cc3)c2n1 [entospletinib]
Assay: log2 fold change, soluble protein after heating vs DMSO (PISA); higher = thermal stabilisation; K562 cells, 10 uM, 30 min; active = over 0.2 and 3.5 SD of the protein, either way, in both replicates (recomputed)
Method in brief: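 Soluble protein was defined as the supernatant after 21,000xg for 90 min. It came from K562 cells at 2×10^6 cells/mL given 10 μM compound for 30 min, heated in aliquots for 3 min across 48°C-58°C, pooled, and extracted in PBS with 0.5% NP-40 at 4°C, and was quantified by TMTpro 16plex LC-MS/MS with equalised channel sums. Thermal stability against control samples, from duplicates, is reported as log2 fold change.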

Amino acid sequences for entries named in this document (tags omitted). A change or cut given only in a name is not applied to a line headed by its entry.
UniProt Q9UH62: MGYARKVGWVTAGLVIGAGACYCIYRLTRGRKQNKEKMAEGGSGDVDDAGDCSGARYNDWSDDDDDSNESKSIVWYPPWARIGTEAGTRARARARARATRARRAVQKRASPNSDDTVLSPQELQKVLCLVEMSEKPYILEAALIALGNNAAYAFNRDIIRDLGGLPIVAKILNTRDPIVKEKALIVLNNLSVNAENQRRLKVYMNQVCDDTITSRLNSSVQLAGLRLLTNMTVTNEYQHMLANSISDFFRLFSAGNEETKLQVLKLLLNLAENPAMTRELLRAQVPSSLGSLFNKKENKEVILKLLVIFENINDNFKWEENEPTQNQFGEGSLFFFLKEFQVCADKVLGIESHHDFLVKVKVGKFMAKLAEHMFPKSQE
UniProt Q8N3C0, whole entry, looked up: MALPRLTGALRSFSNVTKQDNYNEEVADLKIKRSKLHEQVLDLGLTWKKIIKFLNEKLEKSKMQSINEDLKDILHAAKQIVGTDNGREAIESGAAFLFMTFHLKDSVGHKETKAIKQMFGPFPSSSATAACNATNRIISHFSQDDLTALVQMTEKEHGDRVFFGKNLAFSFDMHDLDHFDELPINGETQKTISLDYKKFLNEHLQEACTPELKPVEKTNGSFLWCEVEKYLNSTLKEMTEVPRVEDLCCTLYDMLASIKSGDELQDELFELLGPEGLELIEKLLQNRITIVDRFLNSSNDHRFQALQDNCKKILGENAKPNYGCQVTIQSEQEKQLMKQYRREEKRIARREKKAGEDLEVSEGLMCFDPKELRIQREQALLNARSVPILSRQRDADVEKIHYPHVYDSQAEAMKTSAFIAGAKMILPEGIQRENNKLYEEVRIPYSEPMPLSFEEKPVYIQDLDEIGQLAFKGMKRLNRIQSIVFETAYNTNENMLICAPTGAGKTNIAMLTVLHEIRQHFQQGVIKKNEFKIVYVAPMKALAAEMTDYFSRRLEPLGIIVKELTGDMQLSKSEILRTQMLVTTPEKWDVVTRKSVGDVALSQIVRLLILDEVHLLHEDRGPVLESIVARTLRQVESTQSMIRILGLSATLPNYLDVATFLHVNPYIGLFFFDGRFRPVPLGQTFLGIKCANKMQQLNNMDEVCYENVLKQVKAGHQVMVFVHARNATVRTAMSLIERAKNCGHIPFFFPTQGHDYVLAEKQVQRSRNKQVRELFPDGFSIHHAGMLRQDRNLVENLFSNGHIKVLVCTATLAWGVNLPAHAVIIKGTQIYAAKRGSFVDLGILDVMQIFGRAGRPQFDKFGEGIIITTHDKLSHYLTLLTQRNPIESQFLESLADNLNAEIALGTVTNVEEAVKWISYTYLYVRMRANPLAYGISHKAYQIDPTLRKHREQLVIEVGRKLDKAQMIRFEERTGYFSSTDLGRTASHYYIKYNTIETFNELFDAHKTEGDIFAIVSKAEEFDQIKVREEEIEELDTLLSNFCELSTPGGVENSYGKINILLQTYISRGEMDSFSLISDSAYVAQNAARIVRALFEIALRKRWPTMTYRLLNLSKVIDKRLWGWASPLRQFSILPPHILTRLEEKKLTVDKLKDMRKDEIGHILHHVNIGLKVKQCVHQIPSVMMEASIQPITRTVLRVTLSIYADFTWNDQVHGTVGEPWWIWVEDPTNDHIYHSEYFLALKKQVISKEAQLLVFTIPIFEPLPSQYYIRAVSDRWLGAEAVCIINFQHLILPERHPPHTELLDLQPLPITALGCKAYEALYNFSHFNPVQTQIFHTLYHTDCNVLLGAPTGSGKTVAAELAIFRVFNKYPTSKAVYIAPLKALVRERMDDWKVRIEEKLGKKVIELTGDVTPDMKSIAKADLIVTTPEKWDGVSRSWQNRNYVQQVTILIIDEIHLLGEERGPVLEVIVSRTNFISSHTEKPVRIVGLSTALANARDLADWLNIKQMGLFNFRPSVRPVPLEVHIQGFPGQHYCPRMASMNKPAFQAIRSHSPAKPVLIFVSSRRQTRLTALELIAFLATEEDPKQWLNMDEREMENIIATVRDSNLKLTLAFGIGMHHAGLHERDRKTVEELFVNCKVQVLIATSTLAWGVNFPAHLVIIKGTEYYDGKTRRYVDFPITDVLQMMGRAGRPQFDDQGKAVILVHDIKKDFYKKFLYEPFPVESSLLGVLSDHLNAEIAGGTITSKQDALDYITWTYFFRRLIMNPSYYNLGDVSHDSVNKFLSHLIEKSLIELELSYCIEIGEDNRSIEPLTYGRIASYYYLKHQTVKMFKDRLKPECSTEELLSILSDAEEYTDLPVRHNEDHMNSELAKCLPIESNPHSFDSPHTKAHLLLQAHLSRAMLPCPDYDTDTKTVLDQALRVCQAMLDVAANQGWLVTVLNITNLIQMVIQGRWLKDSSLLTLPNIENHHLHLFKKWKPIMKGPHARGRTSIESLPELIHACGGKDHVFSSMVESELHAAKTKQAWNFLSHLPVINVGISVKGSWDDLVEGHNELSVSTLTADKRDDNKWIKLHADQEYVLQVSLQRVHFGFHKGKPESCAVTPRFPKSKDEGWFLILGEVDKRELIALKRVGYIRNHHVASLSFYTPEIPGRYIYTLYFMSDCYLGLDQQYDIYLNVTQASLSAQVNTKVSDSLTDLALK
UniProt P27540, whole entry, looked up: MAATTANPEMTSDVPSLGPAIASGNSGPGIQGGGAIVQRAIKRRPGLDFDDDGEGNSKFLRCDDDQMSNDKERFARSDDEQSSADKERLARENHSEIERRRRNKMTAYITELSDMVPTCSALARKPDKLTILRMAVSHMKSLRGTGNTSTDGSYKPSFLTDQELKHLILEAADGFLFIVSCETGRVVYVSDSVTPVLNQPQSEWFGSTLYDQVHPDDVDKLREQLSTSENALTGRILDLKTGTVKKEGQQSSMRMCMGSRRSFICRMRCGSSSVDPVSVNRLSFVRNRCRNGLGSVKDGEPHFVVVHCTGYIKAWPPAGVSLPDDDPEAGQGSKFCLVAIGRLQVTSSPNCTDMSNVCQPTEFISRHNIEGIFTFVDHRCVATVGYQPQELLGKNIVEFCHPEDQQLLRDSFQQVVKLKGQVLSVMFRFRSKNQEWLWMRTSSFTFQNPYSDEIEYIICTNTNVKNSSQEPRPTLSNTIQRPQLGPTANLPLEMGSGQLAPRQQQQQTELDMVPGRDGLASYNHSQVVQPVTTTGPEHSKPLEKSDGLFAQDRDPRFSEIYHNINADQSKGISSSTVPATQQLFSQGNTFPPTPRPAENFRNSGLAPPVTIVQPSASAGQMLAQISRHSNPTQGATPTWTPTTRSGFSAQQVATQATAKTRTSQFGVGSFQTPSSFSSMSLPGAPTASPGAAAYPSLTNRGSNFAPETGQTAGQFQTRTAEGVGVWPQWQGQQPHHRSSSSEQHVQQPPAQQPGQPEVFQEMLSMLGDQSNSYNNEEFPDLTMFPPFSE
UniProt O43681: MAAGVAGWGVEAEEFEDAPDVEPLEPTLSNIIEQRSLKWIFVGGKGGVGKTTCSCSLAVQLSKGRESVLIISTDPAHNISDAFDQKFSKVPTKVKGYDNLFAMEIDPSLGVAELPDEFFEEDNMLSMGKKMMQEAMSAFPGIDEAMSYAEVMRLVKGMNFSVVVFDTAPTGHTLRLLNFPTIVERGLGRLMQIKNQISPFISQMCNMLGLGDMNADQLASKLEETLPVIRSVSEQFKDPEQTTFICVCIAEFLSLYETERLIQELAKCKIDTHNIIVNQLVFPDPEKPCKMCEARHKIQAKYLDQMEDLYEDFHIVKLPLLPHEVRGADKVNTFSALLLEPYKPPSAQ
UniProt Q9H2C2: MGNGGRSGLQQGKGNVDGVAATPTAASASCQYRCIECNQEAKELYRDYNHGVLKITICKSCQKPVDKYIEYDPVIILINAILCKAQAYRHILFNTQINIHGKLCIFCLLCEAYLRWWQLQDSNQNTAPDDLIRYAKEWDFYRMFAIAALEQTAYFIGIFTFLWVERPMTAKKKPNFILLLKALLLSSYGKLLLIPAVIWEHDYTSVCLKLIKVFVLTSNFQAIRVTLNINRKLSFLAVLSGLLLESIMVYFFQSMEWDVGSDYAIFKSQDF
UniProt P56378: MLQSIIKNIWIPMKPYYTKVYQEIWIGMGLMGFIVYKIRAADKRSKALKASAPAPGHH
UniProt Q96BM9: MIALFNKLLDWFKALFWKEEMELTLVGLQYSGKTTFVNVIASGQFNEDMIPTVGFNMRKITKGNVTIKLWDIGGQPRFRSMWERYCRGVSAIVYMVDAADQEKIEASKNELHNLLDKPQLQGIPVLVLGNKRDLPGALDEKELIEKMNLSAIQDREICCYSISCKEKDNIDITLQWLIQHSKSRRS
UniProt P23634: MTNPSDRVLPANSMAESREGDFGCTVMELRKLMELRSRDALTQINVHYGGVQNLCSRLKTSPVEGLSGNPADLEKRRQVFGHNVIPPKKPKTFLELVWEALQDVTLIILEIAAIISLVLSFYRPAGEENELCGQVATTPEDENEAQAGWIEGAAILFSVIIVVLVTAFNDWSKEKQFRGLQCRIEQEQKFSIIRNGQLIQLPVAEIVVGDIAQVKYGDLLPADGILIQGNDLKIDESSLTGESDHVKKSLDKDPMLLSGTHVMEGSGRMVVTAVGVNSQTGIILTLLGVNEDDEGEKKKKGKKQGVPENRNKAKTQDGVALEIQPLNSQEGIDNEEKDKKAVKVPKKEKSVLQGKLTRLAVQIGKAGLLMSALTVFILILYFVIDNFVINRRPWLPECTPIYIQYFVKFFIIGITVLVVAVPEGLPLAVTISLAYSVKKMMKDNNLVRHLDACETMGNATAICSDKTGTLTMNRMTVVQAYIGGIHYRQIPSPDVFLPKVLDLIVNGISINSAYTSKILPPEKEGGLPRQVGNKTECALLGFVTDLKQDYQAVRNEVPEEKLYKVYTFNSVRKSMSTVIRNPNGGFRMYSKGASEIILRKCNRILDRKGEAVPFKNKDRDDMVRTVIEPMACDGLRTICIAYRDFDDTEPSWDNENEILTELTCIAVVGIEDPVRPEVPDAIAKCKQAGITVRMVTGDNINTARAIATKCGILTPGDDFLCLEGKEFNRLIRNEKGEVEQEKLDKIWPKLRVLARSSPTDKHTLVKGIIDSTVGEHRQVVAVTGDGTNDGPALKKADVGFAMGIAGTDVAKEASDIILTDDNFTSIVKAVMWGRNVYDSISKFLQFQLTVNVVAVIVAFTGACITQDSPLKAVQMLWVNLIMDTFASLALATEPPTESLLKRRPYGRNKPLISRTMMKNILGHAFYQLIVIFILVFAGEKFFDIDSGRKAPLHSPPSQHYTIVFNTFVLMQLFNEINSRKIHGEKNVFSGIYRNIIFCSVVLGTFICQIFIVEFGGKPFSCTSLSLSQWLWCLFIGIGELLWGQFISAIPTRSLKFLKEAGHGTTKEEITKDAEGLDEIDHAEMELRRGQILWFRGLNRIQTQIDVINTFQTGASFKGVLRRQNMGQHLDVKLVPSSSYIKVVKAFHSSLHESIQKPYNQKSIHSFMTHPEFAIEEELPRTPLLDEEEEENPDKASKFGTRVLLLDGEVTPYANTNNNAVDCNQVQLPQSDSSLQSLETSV
UniProt P16615: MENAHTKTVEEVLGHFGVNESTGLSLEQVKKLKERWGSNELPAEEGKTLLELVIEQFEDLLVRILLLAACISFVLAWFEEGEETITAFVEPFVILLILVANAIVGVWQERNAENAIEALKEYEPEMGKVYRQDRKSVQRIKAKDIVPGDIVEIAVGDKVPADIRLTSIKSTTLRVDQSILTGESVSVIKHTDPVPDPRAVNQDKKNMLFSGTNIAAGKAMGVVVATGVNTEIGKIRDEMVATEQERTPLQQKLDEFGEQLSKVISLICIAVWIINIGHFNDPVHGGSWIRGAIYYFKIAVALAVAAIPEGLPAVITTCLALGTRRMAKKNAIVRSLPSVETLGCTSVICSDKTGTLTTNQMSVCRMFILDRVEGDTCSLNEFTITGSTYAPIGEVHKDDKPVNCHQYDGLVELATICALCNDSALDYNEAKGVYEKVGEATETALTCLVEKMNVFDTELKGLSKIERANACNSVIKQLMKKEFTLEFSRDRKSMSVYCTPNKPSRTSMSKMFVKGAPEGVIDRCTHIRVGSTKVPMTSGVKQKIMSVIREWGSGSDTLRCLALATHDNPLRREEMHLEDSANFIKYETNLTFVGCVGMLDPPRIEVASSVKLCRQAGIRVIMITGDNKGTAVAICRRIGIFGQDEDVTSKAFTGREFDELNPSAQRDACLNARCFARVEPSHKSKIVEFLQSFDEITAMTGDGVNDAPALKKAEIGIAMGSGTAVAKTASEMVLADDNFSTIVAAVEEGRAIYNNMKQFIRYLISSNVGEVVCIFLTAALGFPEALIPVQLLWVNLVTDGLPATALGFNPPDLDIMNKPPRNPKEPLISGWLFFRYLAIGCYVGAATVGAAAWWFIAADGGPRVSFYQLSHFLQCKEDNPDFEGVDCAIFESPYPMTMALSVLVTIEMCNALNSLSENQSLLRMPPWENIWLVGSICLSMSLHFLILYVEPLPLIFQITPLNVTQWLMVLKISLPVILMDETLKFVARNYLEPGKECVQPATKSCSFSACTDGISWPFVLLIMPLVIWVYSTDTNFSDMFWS

log2 fold change, inactive:
ATP6V1G1 (UniProt O75348) -0.009, ATL3 (UniProt Q6DD88) -0.066, ASRGL1 (UniProt Q7L266) -0.012, ASDURF (UniProt L0R819) 0.027, ARL8B (UniProt Q9NVJ2) 0.006, ATP6V0D1 (UniProt P61421) 0.087, ATG101 (UniProt Q9BSB4) 0.028, ARL15 (UniProt Q9NXU5) -0.048, ARMCX3 (UniProt Q9UH62) -0.036, ASCC3 (UniProt Q8N3C0) 0.035, ARNT (UniProt P27540) -0.202, ARPC5 (UniProt O15511) -0.009, ATP5MF (UniProt P56134) 0.047, ARRB2 isoform 4 (UniProt P32121) -0.083, ATP6AP2 (UniProt O75787) -0.008, ASNA1 (UniProt O43681) 0.007, ARV1 (UniProt Q9H2C2) -0.001, ATP5MPL (UniProt P56378) 0.047, ARRB1 (UniProt P49407) -0.019, ATP5MC2 isoform 2 (UniProt Q06055) -0.084, ARL8A (UniProt Q96BM9) -0.021, ATG16L1 (UniProt Q676U5) -0.051, ATP1A3 isoform 3 (UniProt P13637) 0.008, ATP6V1B2 (UniProt P21281) 0.006, ATP6V1D (UniProt Q9Y5K8) -0.031, ARSB (UniProt P15848) 0.056, ATP5PB (UniProt P24539) 0.008, ARRB1 isoform 2 (UniProt P49407) -0.01, ATP2C1 isoform 7 (UniProt P98194) -0.006, ATP2B4 (UniProt P23634) 0.019, ASMTL (UniProt O95671) -0.019, ATP2A2 (UniProt P16615) -0.027

Source: the supplement of paper PMC10849652
